# Laboratory results taken from article PMC11178546.
# Chains of the proteins cited; added tags and fusions are not shown.
# UniProt P98194: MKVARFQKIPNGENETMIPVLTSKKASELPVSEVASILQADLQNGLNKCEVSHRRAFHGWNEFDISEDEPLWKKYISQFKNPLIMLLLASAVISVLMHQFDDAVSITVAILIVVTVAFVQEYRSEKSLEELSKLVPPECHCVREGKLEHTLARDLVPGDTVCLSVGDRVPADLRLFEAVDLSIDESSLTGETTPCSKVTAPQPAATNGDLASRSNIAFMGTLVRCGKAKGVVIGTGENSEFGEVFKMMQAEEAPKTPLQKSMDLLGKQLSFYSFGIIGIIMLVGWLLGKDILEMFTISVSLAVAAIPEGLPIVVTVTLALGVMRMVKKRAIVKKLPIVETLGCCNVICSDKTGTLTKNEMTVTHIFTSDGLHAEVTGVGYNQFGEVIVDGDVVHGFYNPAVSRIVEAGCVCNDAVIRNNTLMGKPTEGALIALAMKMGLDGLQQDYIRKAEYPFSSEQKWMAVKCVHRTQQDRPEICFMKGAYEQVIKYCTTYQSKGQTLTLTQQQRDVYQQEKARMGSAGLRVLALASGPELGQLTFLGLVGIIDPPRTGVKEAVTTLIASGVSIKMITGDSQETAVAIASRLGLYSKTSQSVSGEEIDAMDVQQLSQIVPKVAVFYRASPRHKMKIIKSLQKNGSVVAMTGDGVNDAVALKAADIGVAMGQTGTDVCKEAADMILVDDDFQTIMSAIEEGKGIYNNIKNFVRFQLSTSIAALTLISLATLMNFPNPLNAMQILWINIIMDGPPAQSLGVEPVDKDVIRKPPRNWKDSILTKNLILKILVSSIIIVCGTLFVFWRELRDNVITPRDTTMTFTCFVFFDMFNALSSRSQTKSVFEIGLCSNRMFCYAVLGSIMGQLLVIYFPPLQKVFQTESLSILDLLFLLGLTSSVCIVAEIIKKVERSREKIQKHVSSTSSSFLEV
# Results are given in words; binding and its absence hold for the method and conditions named. Binding seen in cells or lysates may run through a third protein. A yes stands for co-enrichment or nearness to the bait. Other partners may have been found. Sequences can lack the tags named with a protein.
# T1: TurboID-GOLIM4 fusion protein (human) (UniProt O00461)
# T1 sequence: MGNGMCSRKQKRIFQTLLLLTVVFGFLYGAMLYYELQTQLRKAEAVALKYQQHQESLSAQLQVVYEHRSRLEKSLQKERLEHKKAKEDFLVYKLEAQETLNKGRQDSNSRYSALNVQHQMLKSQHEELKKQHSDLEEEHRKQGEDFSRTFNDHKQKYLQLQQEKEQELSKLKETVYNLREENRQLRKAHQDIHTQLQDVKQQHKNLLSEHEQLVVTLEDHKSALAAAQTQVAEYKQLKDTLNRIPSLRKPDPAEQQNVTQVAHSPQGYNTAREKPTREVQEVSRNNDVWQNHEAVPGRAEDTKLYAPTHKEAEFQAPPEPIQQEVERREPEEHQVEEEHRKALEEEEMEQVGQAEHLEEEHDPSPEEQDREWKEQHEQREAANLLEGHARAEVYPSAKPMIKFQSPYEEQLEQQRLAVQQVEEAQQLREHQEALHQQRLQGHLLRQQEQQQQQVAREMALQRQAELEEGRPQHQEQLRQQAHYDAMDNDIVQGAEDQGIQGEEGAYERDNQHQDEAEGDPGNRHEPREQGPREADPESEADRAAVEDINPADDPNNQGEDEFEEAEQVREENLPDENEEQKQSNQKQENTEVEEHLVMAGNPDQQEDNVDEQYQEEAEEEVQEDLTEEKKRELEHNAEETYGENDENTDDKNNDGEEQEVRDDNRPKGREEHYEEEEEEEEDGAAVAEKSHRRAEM
# B1: GGA1 (protein, UniProt Q9UJY5 1-639)
# chain: MEPAMEPETLEARINRATNPLNKELDWASINGFCEQLNEDFEGPPLATRLLAHKIQSPQEWEAIQALTVLETCMKSCGKRFHDEVGKFRFLNELIKVVSPKYLGSRTSEKVKNKILELLYSWTVGLPEEVKIAEAYQMLKKQGIVKSDPKLPDDTTFPLPPPRPKNVIFEDEEKSKMLARLLKSSHPEDLRAANKLIKEMVQEDQKRMEKISKRVNAIEEVNNNVKLLTEMVMSHSQGGAAAGSSEDLMKELYQRCERMRPTLFRLASDTEDNDEALAEILQANDNLTQVINLYKQLVRGEEVNGDATAGSIPGSTSALLDLSGLDLPPAGTTYPAMPTRPGEQASPEQPSASVSLLDDELMSLGLSDPTPPSGPSLDGTGWNSFQSSDATEPPAPALAQAPSMESRPPAQTSLPASSGLDDLDLLGKTLLQQSLPPESQQVRWEKQQPTPRLTLRDLQNKSSSCSSPSSSATSLLHTVSPEPPRPPQQPVPTELSLASITVPLESIKPSNILPVTVYDQHGFRILFHFARDPLPGRSDVLVVVVSMLSTAPQPIRNIVFQSAVPKVMKVKLQPPSGTELPAFNPIVHPSAITQVLLLANPQKEKVRLRYKLTFTMGDQTYNEMGDVDQFPPPETWGSL
# Key:
# [1] = target: T1, TurboID-GOLIM4 fusion protein (human); experiment: proximity labelling; TurboID-GOLIM4 as bait in H1299 cells; 100 μM biotin for 1 hour; biotinylated proteins purified on streptavidin agarose beads and identified by LC-MS (the paper calls it a proximity ligation assay)
# [2] = target: T1, TurboID-GOLIM4 fusion protein (human); experiment: proximity labelling; TurboID-GOLIM4 as bait in Mn-treated cells; biotinylated proteins identified by LC-MS
Molecule,binding [1],binding [2]
ATPase secretory pathway Ca2+ transporting 1 (ATP2C1) (from UniProt P98194 1-919),binds,–
B1,–,binds
